Measurements from patent US20200010756A1, “SURFACTANT FOR ENHANCED OIL RECOVERY” (Total S.A., priority 2017, published 2020).

Test: slim tube co-injection with CO2 at different salinities, emulsion generation
Conditions: 0.2 wt %, co-injected with CO2

SMILES: CCCCCCCCCCCCNCCCN(C)C [Compound E, N^1-dodecyl-N^3,N^3-dimethylpropane-1,3-diamine]
- generation of a strong emulsion (pH 6, 220 g/L NaCl brine): can be readily generated
- generation of a strong emulsion (pH 6, deionized water (salinity=0)): cannot
